The exact form of at least one protein or probe is not confirmed. A negative result means that nothing was seen under these conditions. Tags and fusion partners may be left off the protein sequences shown. The comparison behind a weaker result is the experiment's own reference, which may not be listed here. At least one verdict rests on a figure or table, not on a statement of the authors.
Biological target: T1, 6xHis-WhiJ9 (Streptomyces venezuelae) (UniProt F2RAJ0)
T1 sequence (looked up, limits assumed): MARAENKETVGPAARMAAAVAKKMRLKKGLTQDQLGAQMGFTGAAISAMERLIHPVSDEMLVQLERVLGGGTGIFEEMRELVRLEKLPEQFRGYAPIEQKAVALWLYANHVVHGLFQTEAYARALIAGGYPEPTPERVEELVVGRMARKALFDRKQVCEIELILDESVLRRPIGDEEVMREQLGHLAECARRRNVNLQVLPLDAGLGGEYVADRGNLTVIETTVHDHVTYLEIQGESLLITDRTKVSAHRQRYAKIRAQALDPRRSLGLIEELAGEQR
Experiment: SPR
Settings: SPR (ReDCaT): 10 mM HEPES pH 7.4, 250 mM NaCl, 3 mM EDTA, 0.05% Tween 20, DNA 1 uM, temperature not stated, recombinant protein, protein details: N-terminal 6xHis (pET15b), label: captured via biotinylated ReDCaT linker

ACCGATCTCAACCGGTCTCAAC / GTTGAGACCGGTTGAGATCGGTCCTACCCTACGTCCTCCTGC [LH10]
binding result: binds more weakly

ATCTCAACCGGTCTCAAC / GTTGAGACCGGTTGAGATCCTACCCTACGTCCTCCTGC [LH12]
binding result: binds more weakly

CAACCGATCTCAACCGGTCTCAAC / GTTGAGACCGGTTGAGATCGGTTGCCTACCCTACGTCCTCCTGC [LH9]
binding result: binds more weakly

CCGACGCGCCCGCCACAGTCGTGGAAAACGCTAGCGCCGG / CCGGCGCTAGCGTTTTCCACGACTGTGGCGGGCGCGTCGGCCTACCCTACGTCCTCCTGC [O5]
binding result: no binding

CCGCCGAATTCGACTGCACACGAGGGGCGTTGGTGCAGGT / ACCTGCACCAACGCCCCTCGTGTGCAGTCGAATTCGGCGGCCTACCCTACGTCCTCCTGC [O3]
binding result: no binding

CGATCTCAACCGGTCTCAAC / GTTGAGACCGGTTGAGATCGCCTACCCTACGTCCTCCTGC [LH11]
binding result: binds more weakly

CGGACTCAACCGATCTCAAC / CCTACCCTACGTCCTCCTGCGTTGAGATCGGTTGAGTCCG [RH11]
binding result (severe drop): binds more weakly

CGGACTCAACCGATCTCAACCG / CCTACCCTACGTCCTCCTGCCGGTTGAGATCGGTTGAGTCCG [RH10]
binding result (severe drop): binds more weakly

CGGACTCAACCGATCTCAACCGGT / CCTACCCTACGTCCTCCTGCACCGGTTGAGATCGGTTGAGTCCG [RH9]
binding result (severe drop): binds more weakly

CGGACTCAACCGATCTCAACCGGTCT / CCTACCCTACGTCCTCCTGCAGACCGGTTGAGATCGGTTGAGTCCG [RH8]
binding result (severe drop): binds more weakly

CGGACTCAACCGATCTCAACCGGTCTCA / CCTACCCTACGTCCTCCTGCTGAGACCGGTTGAGATCGGTTGAGTCCG [RH7]
binding result (severe drop): binds more weakly

CGGACTCAACCGATCTCAACCGGTCTCAAC / CCTACCCTACGTCCTCCTGCGTTGAGACCGGTTGAGATCGGTTGAGTCCG [RH6]
binding result: binds more weakly

CGGACTCAACCGATCTCAACCGGTCTCAACTG / CCTACCCTACGTCCTCCTGCCAGTTGAGACCGGTTGAGATCGGTTGAGTCCG [RH5]
binding result: binds more weakly

CGGACTCAACCGATCTCAACCGGTCTCAACTGCT / CCTACCCTACGTCCTCCTGCAGCAGTTGAGACCGGTTGAGATCGGTTGAGTCCG [RH4]
binding result: binds more weakly

CGGACTCAACCGATCTCAACCGGTCTCAACTGCTCC / CCTACCCTACGTCCTCCTGCGGAGCAGTTGAGACCGGTTGAGATCGGTTGAGTCCG [RH3]
binding result: binds more weakly

CGGACTCAACCGATCTCAACCGGTCTCAACTGCTCCCCGC / CCTACCCTACGTCCTCCTGCGCGGGGAGCAGTTGAGACCGGTTGAGATCGGTTGAGTCCG [RH1]
binding result: binds

CTCAACCGATCTCAACCGGTCTCAAC / GTTGAGACCGGTTGAGATCGGTTGAGCCTACCCTACGTCCTCCTGC [LH8]
binding result: binds more weakly

CTCAACCGGTCTCAAC / GTTGAGACCGGTTGAGCCTACCCTACGTCCTCCTGC [LH13]
binding result: no binding

GACTCAACCGATCTCAACCGGTCTCAAC / GTTGAGACCGGTTGAGATCGGTTGAGTCCCTACCCTACGTCCTCCTGC [LH7]
binding result: binds more weakly

GATCTCAACCGGTCTCAACTGCTCCCCGCCGAATTCGACT / AGTCGAATTCGGCGGGGAGCAGTTGAGACCGGTTGAGATCCCTACCCTACGTCCTCCTGC [O2]
binding result (higher affinity than O1): binds

GGCGTTGGTGCAGGTCGAGGGGTTACCGACGCGCCCGCCA / TGGCGGGCGCGTCGGTAACCCCTCGACCTGCACCAACGCCCCTACCCTACGTCCTCCTGC [O4]
binding result: no binding

GTCGTGGAAAACGCTAGCGCCGGCGCGGGAACATGTCCTC / GAGGACATGTTCCCGCGCCGGCGCTAGCGTTTTCCACGACCCTACCCTACGTCCTCCTGC [O6]
binding result: no binding

GTTCCCCATTCGGACTCAACCGATCTCAACCGGTCTCAAC / GTTGAGACCGGTTGAGATCGGTTGAGTCCGAATGGGGAACCCTACCCTACGTCCTCCTGC [LH1]
binding result: binds

TACATGCAGCGGATGAGGGAGCCGGTCTCAACAT / ATGTTGAGACCGGCTCCCTCATCCGCTGCATGTACCTACCCTACGTCCTCCTGC [DR3only]
binding result: binds

TACATGCAGCGGCGATCTCAACATGAGGGAGCAT / ATGCTCCCTCATGTTGAGATCGCCGCTGCATGTACCTACCCTACGTCCTCCTGC [DR2only]
binding result: no binding

TACATGCAGCGGCGATCTCAACCGGTCTCAACAT / ATGTTGAGACCGGTTGAGATCGCCGCTGCATGTACCTACCCTACGTCCTCCTGC [DR23]
binding result (almost as well as DR123): binds

TACGGACTCAACCATGCAGCGGATGAGGGAGCAT / ATGCTCCCTCATCCGCTGCATGGTTGAGTCCGTACCTACCCTACGTCCTCCTGC [DR1only]
binding result: no binding

TACGGACTCAACCATGCAGCGGCGGTCTCAACAT / ATGTTGAGACCGCCGCTGCATGGTTGAGTCCGTACCTACCCTACGTCCTCCTGC [DR13]
binding result (strong): binds

TACGGACTCAACCGATCTCAACCGGTCTCAACAT / ATGTTGAGACCGGTTGAGATCGGTTGAGTCCGTACCTACCCTACGTCCTCCTGC [DR123]
binding result (highest of the DR set): binds

TCACGTTCCCCATTCGGACTCAACCGATCTCAACCGGTCT / AGACCGGTTGAGATCGGTTGAGTCCGAATGGGGAACGTGACCTACCCTACGTCCTCCTGC [O1]
binding result (lower affinity than O2): binds
